{
  "source": "PubChem BioAssay AID1487",
  "about": "(National Center for Advancing Translational Sciences (NCATS), 2009)",
  "test": "qHTS Assay for Modulators of Lamin A Splicing",
  "settings": "HeLa LMNA splicing GFP/RFP minigene ratio, 48 h",
  "summary_of_the_method": "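S3 HeLa cells stably expressing lamin A-EGFP splicing minigene plus DsRed2, 600 cells/well, 48 h compound exposure at 37C. Laser-scanning cytometry; analysed as GFP (500-530 nm)/RFP (575-640 nm) total intensity ratio; 0.5% DMSO vehicle.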",
  "key": {"[1]": {"settings": "measured here: RFP viability control channel"}, "[2]": {"settings": "measured here: GFP splicing reporter channel"}},
  "note": "The other results are listed elsewhere or left out. These are further read-outs of the screen, such as a control signal, another cell line or another target. No call is given for them. Compounds called inactive in the main read-out are mostly missing here. Potencies come from curve fits of mixed quality, noted in brackets.",
  "data": [
    {"smiles": "CN(C)c1cccc(C(=O)OCc2cc(=O)oc3cc(O)ccc23)c1", "values": [
      {"measurement": "AC50", "setting": "[1]", "result": "35.5 µM [rising, single point]"}
    ]},
    {"smiles": "Cc1ccc2c(Cl)c(C(=O)Nc3cccnc3)sc2c1", "values": [
      {"measurement": "AC50", "setting": "[2]", "result": "11.2 µM [rising, partial curve]"},
      {"measurement": "AC50", "setting": "[1]", "result": "12.6 µM [rising, partial curve]"}
    ]},
    {"smiles": "N/C(=N\\OC(=O)Cc1ccccc1[N+](=O)[O-])c1cccnc1", "values": [
      {"measurement": "AC50", "setting": "[1]", "result": "5.01 µM [rising, single point]"}
    ]},
    {"smiles": "COc1ccccc1NC(=O)CSc1nnc(Cn2nnc(-c3ccccc3)n2)n1-c1ccccc1", "values": [
      {"measurement": "AC50", "setting": "[2]", "result": "35.5 µM [rising, single point]"},
      {"measurement": "AC50", "setting": "[1]", "result": "15.8 µM [rising, single point]"}
    ]},
    {"smiles": "O=C(NCCCN1CCN(c2cccc(Cl)c2)CC1)C1(S(=O)(=O)c2ccc(Cl)cc2)CC1", "values": [
      {"measurement": "AC50", "setting": "[1]", "result": "17.8 µM [rising, single point]"}
    ]},
    {"smiles": "COc1ccccc1NC(=O)CSc1nnc(COc2ccc(Cl)cc2)n1Cc1ccco1", "values": [
      {"measurement": "AC50", "setting": "[2]", "result": "17.8 µM [rising, partial curve]"}
    ]},
    {"smiles": "CCOC(=O)c1cccc(NC(=S)NCc2ccc(C)cc2)c1", "values": [
      {"measurement": "AC50", "setting": "[1]", "result": "1 µM [falling, partial curve, poor fit]"}
    ]},
    {"smiles": "OCCCCNCc1ccc(OCc2ccccc2)cc1", "values": [
      {"measurement": "AC50", "setting": "[2]", "result": "6.31 µM [falling, single point]"}
    ]},
    {"smiles": "COc1cc(CN(CCc2c(C)[nH]c3ccc(C)cc23)C(=S)NC(C)(C)C)cc(OC)c1OC", "values": [
      {"measurement": "AC50", "setting": "[1]", "result": "14.1 µM [rising, partial curve, poor fit]"}
    ]},
    {"smiles": "CCOC(=O)c1c(-c2cccc(C)c2)csc1NC(=O)c1c(-c2ccccc2)noc1C", "values": [
      {"measurement": "AC50", "setting": "[2]", "result": "0.891 µM [falling, full curve]"}
    ]},
    {"smiles": "CCOc1ccc(S(=O)(=O)Nc2cccnc2)cc1", "values": [
      {"measurement": "AC50", "setting": "[2]", "result": "17.8 µM [rising, partial curve, poor fit]"},
      {"measurement": "AC50", "setting": "[1]", "result": "20 µM [rising, partial curve]"}
    ]},
    {"smiles": "Cc1ccc(NC(=O)c2cc(S(=O)(=O)N3CCC4(CC3)OCCO4)ccc2F)cc1", "values": [
      {"measurement": "AC50", "setting": "[1]", "result": "15.8 µM [rising, single point]"}
    ]},
    {"smiles": "O=C(CN1CCN(c2ccccn2)CC1)Nc1ccc(Cl)c(C(F)(F)F)c1", "values": [
      {"measurement": "AC50", "setting": "[1]", "result": "35.5 µM [rising, partial curve]"}
    ]},
    {"smiles": "COc1ccccc1N1CCN(c2ccc(Cl)nn2)CC1", "values": [
      {"measurement": "AC50", "setting": "[2]", "result": "0.00316 µM [falling, full curve, poor fit]"},
      {"measurement": "AC50", "setting": "[1]", "result": "0.00355 µM [falling, full curve, poor fit]"}
    ]},
    {"smiles": "CCCCCCCn1ccc(=N)cc1", "values": [
      {"measurement": "AC50", "setting": "[1]", "result": "10 µM [rising, partial curve]"}
    ]},
    {"smiles": "Cc1cc(/C=C(\\C#N)C(=O)NCCc2c[nH]c3ccccc23)c(C)n1C", "values": [
      {"measurement": "AC50", "setting": "[1]", "result": "11.2 µM [rising, single point]"}
    ]},
    {"smiles": "O=C(CSCC(=O)N1CCN(c2ccccc2)CC1)Nc1nc(-c2ccc(Cl)s2)cs1", "values": [
      {"measurement": "AC50", "setting": "[1]", "result": "17.8 µM [rising, single point]"}
    ]},
    {"smiles": "Cc1ccc(S(=O)(=O)/N=S(/c2ccccc2)C(C)C)cc1", "note": "(stereo not drawn)", "values": [
      {"measurement": "AC50", "setting": "[2]", "result": "0.141 µM [rising, partial curve, poor fit]"}
    ]},
    {"smiles": "Cc1cc2c(cc1S(=O)(=O)CCC(=O)N1CCCC(C)C1)OCC(=O)N2", "note": "(stereo not drawn)", "values": [
      {"measurement": "AC50", "setting": "[2]", "result": "0.562 µM [rising, full curve, poor fit]"}
    ]},
    {"smiles": "CCCCN(CCCNC(=O)c1ccc(Sc2ccc(Cl)cc2)c(NC(C)=O)c1)c1ccccc1", "values": [
      {"measurement": "AC50", "setting": "[2]", "result": "7.94 µM [falling, partial curve, poor fit]"}
    ]},
    {"smiles": "Cc1ccc(NC(=O)CSCc2n[nH]c(=O)[nH]2)c(Br)c1", "values": [
      {"measurement": "AC50", "setting": "[1]", "result": "5.62 µM [falling, partial curve, poor fit]"}
    ]},
    {"smiles": "C/C(=C\\C(=O)c1ccncc1)Nc1ccccc1O", "values": [
      {"measurement": "AC50", "setting": "[1]", "result": "10 µM [rising, partial curve]"}
    ]},
    {"smiles": "COc1ccccc1-c1ccc2ncnc(NCc3ccccc3)c2c1", "values": [
      {"measurement": "AC50", "setting": "[2]", "result": "12.6 µM [falling, partial curve]"},
      {"measurement": "AC50", "setting": "[1]", "result": "15.8 µM [falling, partial curve]"}
    ]},
    {"smiles": "Cc1ccc(-c2csc3ncnc(-n4nc(C)cc4N)c23)cc1", "values": [
      {"measurement": "AC50", "setting": "[1]", "result": "7.08 µM [rising, partial curve]"}
    ]},
    {"smiles": "COc1ccc(C2CC(c3ccccc3)=NN2C(=O)COC(=O)c2ccc(Cl)nc2)cc1", "note": "(stereo not drawn)", "values": [
      {"measurement": "AC50", "setting": "[1]", "result": "35.5 µM [rising, single point]"}
    ]},
    {"smiles": "O=C(O)CN1C(=O)/C(=C/C=C/c2ccccc2)SC1=S", "values": [
      {"measurement": "AC50", "setting": "[2]", "result": "0.0562 µM [rising, full curve, poor fit]"}
    ]},
    {"smiles": "CCCc1cc(=O)n2[nH]c(NCc3ccc(OC)c(OC)c3)nc2n1", "values": [
      {"measurement": "AC50", "setting": "[2]", "result": "0.02 µM [falling, full curve, poor fit]"},
      {"measurement": "AC50", "setting": "[1]", "result": "2 µM [falling, partial curve, poor fit]"}
    ]},
    {"smiles": "Cn1c(=O)c2c(nc(NCc3ccco3)n2C/C=C/c2ccccc2)n(C)c1=O", "values": [
      {"measurement": "AC50", "setting": "[1]", "result": "5.62 µM [rising, single point]"}
    ]},
    {"smiles": "CC(NC(=O)c1ccnc(C(C)(C)C)c1)c1ccccc1", "note": "(stereo not drawn)", "values": [
      {"measurement": "AC50", "setting": "[1]", "result": "31.6 µM [rising, single point]"}
    ]},
    {"smiles": "CCC(O)CNc1nc(-n2nc(C)cc2C)nc2sc3c(c12)CC(C)(C)OC3", "note": "(stereo not drawn)", "values": [
      {"measurement": "AC50", "setting": "[1]", "result": "22.4 µM [falling, partial curve, poor fit]"}
    ]},
    {"smiles": "COCCCNC(=O)c1cc(C(=O)Cc2ccccc2)c[nH]1", "values": [
      {"measurement": "AC50", "setting": "[2]", "result": "0.141 µM [rising, full curve, poor fit]"}
    ]},
    {"smiles": "CCOC(=O)c1nnn(-c2nonc2N)c1COc1c(C=O)cccc1OC", "values": [
      {"measurement": "AC50", "setting": "[2]", "result": "3.16 µM [rising, single point]"}
    ]},
    {"smiles": "Cc1ccc(CNC(=O)c2ccc(CSCc3ccccc3Cl)o2)cc1", "values": [
      {"measurement": "AC50", "setting": "[2]", "result": "0.02 µM [falling, full curve, poor fit]"}
    ]},
    {"smiles": "CCSc1nc(-c2ccc(OC)cc2)n(-c2nc3ccccc3s2)n1", "values": [
      {"measurement": "AC50", "setting": "[2]", "result": "35.5 µM [rising, single point]"},
      {"measurement": "AC50", "setting": "[1]", "result": "35.5 µM [rising, single point]"}
    ]},
    {"smiles": "COc1cccc(C(=O)N2CCN(Cc3ccccc3C(F)(F)F)CC2)c1", "values": [
      {"measurement": "AC50", "setting": "[2]", "result": "12.6 µM [rising, partial curve]"},
      {"measurement": "AC50", "setting": "[1]", "result": "3.98 µM [rising, full curve]"}
    ]},
    {"smiles": "CCC1=NN(C(=O)C(=O)Nc2ccc(OC)cc2)C(O)(C(F)(F)F)C1", "note": "(stereo not drawn)", "values": [
      {"measurement": "AC50", "setting": "[2]", "result": "25.1 µM [falling, single point]"},
      {"measurement": "AC50", "setting": "[1]", "result": "25.1 µM [falling, single point]"}
    ]},
    {"smiles": "CCOC(=O)Cn1c(=O)cc(C)c2ccccc21", "values": [
      {"measurement": "AC50", "setting": "[2]", "result": "35.5 µM [falling, single point]"}
    ]},
    {"smiles": "CCOC(=O)c1c(C(=O)OCC)c(C)n(CCc2ccc(OC)c(OC)c2)c1C", "values": [
      {"measurement": "AC50", "setting": "[2]", "result": "11.2 µM [rising, partial curve, poor fit]"},
      {"measurement": "AC50", "setting": "[1]", "result": "10 µM [rising, partial curve]"}
    ]}
  ]
}
